# In paper PMC4863600:
# Amino acid sequences for entries named in this document (tags omitted). A change or cut given only in a name is not applied to a line headed by its entry.
# UniProt Q9RVW5: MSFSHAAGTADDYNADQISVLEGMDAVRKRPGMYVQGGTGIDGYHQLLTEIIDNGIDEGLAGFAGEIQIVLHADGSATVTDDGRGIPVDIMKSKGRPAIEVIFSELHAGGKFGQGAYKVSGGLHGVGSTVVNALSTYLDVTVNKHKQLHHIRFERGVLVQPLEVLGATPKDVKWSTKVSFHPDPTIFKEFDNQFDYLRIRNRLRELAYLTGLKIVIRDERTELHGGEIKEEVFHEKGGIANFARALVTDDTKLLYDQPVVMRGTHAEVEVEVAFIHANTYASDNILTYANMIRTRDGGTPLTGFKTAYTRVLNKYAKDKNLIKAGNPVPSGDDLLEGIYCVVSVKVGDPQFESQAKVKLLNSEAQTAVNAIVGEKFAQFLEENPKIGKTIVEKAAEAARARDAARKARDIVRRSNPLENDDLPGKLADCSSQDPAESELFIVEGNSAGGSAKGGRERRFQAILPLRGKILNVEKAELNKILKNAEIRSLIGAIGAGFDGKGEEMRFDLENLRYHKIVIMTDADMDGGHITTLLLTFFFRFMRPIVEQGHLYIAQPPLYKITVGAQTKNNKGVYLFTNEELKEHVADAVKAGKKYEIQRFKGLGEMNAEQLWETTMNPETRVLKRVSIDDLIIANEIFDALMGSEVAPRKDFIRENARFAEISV
# UniProt Q9R342: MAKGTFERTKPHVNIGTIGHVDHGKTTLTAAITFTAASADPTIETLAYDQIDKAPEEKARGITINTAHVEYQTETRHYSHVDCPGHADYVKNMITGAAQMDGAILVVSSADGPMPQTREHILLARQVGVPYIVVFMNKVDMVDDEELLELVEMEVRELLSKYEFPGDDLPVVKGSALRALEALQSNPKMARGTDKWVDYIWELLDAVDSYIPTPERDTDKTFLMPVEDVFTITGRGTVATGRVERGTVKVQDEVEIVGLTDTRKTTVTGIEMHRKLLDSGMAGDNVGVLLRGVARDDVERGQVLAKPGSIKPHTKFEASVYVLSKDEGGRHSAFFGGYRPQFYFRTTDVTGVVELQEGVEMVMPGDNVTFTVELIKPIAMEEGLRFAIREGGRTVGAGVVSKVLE
# UniProt P56867: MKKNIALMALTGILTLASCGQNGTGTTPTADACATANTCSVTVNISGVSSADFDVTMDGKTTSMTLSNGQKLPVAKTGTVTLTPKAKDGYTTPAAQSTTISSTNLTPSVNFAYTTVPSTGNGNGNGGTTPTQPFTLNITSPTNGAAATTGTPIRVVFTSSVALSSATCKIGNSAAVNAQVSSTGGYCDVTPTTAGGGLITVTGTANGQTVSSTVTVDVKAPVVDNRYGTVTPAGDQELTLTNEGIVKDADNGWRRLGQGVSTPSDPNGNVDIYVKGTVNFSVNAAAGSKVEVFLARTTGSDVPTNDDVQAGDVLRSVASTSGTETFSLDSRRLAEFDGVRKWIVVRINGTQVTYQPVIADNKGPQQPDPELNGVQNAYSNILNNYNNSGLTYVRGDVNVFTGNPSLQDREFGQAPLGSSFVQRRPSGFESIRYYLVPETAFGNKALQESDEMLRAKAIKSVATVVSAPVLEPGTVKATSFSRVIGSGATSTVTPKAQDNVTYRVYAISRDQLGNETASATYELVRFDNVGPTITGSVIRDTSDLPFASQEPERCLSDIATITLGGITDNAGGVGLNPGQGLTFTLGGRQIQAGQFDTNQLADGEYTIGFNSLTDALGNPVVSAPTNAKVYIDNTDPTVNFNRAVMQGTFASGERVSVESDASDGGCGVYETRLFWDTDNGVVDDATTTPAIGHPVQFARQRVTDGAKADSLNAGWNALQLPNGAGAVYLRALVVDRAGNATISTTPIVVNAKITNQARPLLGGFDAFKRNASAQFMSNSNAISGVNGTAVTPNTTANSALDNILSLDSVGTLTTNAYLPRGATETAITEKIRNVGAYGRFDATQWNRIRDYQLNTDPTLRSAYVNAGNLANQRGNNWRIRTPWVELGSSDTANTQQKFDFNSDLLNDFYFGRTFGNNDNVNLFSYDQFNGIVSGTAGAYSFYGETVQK
# UniProt Q9RT14: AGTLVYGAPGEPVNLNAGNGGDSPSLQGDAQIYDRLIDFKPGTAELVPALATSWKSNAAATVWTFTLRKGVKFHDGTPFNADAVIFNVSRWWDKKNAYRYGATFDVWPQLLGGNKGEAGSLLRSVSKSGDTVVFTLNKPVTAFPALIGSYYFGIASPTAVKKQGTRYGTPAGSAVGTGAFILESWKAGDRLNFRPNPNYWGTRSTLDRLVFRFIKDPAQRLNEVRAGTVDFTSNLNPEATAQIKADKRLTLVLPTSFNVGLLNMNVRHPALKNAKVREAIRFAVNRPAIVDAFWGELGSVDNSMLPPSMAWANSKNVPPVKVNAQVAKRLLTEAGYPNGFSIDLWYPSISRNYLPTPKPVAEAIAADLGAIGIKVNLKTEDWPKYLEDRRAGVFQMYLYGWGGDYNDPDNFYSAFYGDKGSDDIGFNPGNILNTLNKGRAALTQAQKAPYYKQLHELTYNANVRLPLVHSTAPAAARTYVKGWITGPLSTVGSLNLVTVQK
# No constants are given. Whether binding was seen depends on the method and setting. Binding seen in cells or lysates may run through a third protein. Here binding means that the protein was enriched with, or labelled near, the bait; the list need not be complete. A no says only that the protein was not detected with the bait. Where a sequence is shown, tags or fusion partners need not be part of it.
# Molecular target: T1, PprA::HA fusion protein (D. radiodurans) (UniProt O32504)
# T1 sequence: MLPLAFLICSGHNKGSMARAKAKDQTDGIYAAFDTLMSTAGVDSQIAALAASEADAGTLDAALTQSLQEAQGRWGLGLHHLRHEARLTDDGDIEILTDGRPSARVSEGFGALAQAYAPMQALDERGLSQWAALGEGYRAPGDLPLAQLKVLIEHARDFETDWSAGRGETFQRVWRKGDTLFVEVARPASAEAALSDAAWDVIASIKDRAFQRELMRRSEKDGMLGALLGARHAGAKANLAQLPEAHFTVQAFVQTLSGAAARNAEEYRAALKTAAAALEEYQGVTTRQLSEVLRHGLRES
# Test: affinity purification with mass spectrometry; anti-HA immunoprecipitation (protein G magnetic beads) of PprA::HA from extracts of D. radiodurans GY14615 exposed to 3.8 kGy gamma radiation and recovered 110 min; lysis buffer A (50 mM Tris pH 7.5, 100 mM NaCl, 5 mM MgCl2, 1 mM DTT, 0.5% Triton X-100), 10°C; shotgun MS-MS; compared with nonirradiated cells and with irradiated ΔpprA cells
row,binding,Substance
1,binds,DNA gyrase subunit B (from UniProt Q9RVW5)
2,no binding,DNA topoisomerase IB
3,binds,Elongation factor Tu (from UniProt Q9R342 1-405)
4,binds,Hexagonally packed intermediate layer surface protein (from UniProt P56867)
5,binds,Peptide ABC transporter substrate-binding protein (from UniProt Q9RT14)
6,binds,RNA helicase
